# Data taken from the supplement of paper PMC8728848.
# This is one part of the list.
# B1: Pwp7 (Candida glabrata) (protein)
# chain: MGSSHHHHHHSSGLVPRGSHMASKNPVDFPNLCQYPNLDGAVAGFDTEIYNADPSILINFSLWPILQFPKEWHKTIGRAITTQTNFKLPASDTTLFGVSIPTQNILIEFRGYFIPPKSGTYTFALYLTDDGSAMFLGNDAAFPCGNITSWSNPTNDQVSVSDYDPKKKTLTVYMVAGVAYPLRIAYYNREKGGSLTASFVDPDGLTHSDWNGYIWTLPSCDNCKYS
# How the values were obtained:
# Assay in all cases: glycan array binding signal (z-score within array); higher = stronger binding
# Details in all cases: glycan notation: IUPAC condensed, linker removed
# Fuc(a1-2)Gal = molecular target: Fuc(a1-2)Gal
# In short: (§1)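 The binding signal is a Z-score computed within each array and averaged over linkers. Arrays of the same protein sequence at different concentrations or buffers were also averaged together. Data originate from 3228 arrays in the Consortium for Functional Glycomics database, kept only where the protein sequence was available.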
# Fuc(a1-2)Gal(b1-3)GalNAc = molecular target: Fuc(a1-2)Gal(b1-3)GalNAc
# In short: as §1
# [1] = molecular target: Fuc(a1-2)Gal(b1-3)GalNAc(a1-3)[Fuc(a1-2)]Gal(b1-4)Glc
# In short: as §1
# [2] = molecular target: Fuc(a1-2)Gal(b1-3)GalNAc(a1-3)[Fuc(a1-2)]Gal(b1-4)GlcNAc
# In short: as §1
# [3] = molecular target: Fuc(a1-2)Gal(b1-3)GalNAc(b1-3)Gal
# In short: as §1
# [4] = molecular target: Fuc(a1-2)Gal(b1-3)GalNAc(b1-3)Gal(a1-4)Gal(b1-4)Glc
# In short: as §1
# [5] = molecular target: Fuc(a1-2)Gal(b1-3)GalNAc(b1-4)[Neu5Ac(a2-3)]Gal(b1-4)Glc
# In short: as §1
# Fuc(a1-2)Gal(b1-3)GlcNAc = molecular target: Fuc(a1-2)Gal(b1-3)GlcNAc
# In short: as §1
# [6] = molecular target: Fuc(a1-2)Gal(b1-3)GlcNAc(b1-2)Man(a1-3)[Fuc(a1-2)Gal(b1-3)GlcNAc(b1-2)Man(a1-6)]Man(b1-4)GlcNAc(b1-4)GlcNAc
# In short: as §1
# [7] = molecular target: Fuc(a1-2)Gal(b1-3)GlcNAc(b1-2)Man(a1-3)[Fuc(a1-2)Gal(b1-3)GlcNAc(b1-2)Man(a1-6)]Man(b1-4)GlcNAc(b1-4)[Fuc(a1-6)]GlcNAc
# In short: as §1
# [8] = molecular target: Fuc(a1-2)Gal(b1-3)GlcNAc(b1-3)Gal(b1-4)Glc
# In short: as §1
# [9] = molecular target: Fuc(a1-2)Gal(b1-3)GlcNAc(b1-3)GalNAc
# In short: as §1
# [10] = molecular target: Fuc(a1-2)Gal(b1-3)GlcNAc(b1-3)[Fuc(a1-2)Gal(b1-3)GlcNAc(b1-6)]GalNAc
# In short: as §1
# [11] = molecular target: Fuc(a1-2)Gal(b1-3)GlcNAc(b1-3)[Gal(b1-4)GlcNAc(b1-6)]Gal(b1-4)Glc
# In short: as §1
# [12] = molecular target: Fuc(a1-2)Gal(b1-3)GlcNAc(b1-3)[Neu5Ac(a2-6)Gal(b1-4)GlcNAc(b1-6)]Gal(b1-4)Glc
# In short: as §1
# [13] = molecular target: Fuc(a1-2)Gal(b1-3)GlcNAc6S
# In short: as §1
# [14] = molecular target: Fuc(a1-2)Gal(b1-3)[Fuc(a1-4)]GlcNAc
# In short: as §1
# [15] = molecular target: Fuc(a1-2)Gal(b1-3)[Fuc(a1-4)]GlcNAc(b1-2)Man(a1-3)[Fuc(a1-2)Gal(b1-3)[Fuc(a1-4)]GlcNAc(b1-2)Man(a1-3)]Man(b1-4)GlcNAc(b1-4)GlcNAc
# In short: as §1
# [16] = molecular target: Fuc(a1-2)Gal(b1-3)[Fuc(a1-4)]GlcNAc(b1-2)Man(a1-3)[Fuc(a1-2)Gal(b1-3)[Fuc(a1-4)]GlcNAc(b1-2)Man(a1-6)]Man(b1-4)GlcNAc(b1-4)[Fuc(a1-6)]GlcNAc(b1-4)[Fuc(a1-6)]GlcNAc
# In short: as §1
# [17] = molecular target: Fuc(a1-2)Gal(b1-3)[Fuc(a1-4)]GlcNAc(b1-3)[Fuc(a1-3)[Gal(b1-4)]GlcNAc(b1-6)]Gal(b1-4)Glc
# In short: as §1
# [18] = molecular target: Fuc(a1-2)Gal(b1-3)[Fuc(a1-4)]GlcNAc(b1-3)[Gal(b1-4)GlcNAc(b1-6)]Gal(b1-4)Glc
# In short: as §1
# Fuc(a1-2)Gal(b1-4)Glc = molecular target: Fuc(a1-2)Gal(b1-4)Glc
# In short: as §1
# Fuc(a1-2)Gal(b1-4)Glc6S = molecular target: Fuc(a1-2)Gal(b1-4)Glc6S
# In short: as §1
# Fuc(a1-2)Gal(b1-4)GlcNAc = molecular target: Fuc(a1-2)Gal(b1-4)GlcNAc
# In short: as §1
# [19] = molecular target: Fuc(a1-2)Gal(b1-4)GlcNAc(b1-2)Man
# In short: as §1
# [20] = molecular target: Fuc(a1-2)Gal(b1-4)GlcNAc(b1-2)Man(a1-3)[Fuc(a1-2)Gal(b1-4)GlcNAc(b1-2)Man(a1-6)]Man(b1-4)GlcNAc(b1-4)GlcNAc
# In short: as §1
# [21] = molecular target: Fuc(a1-2)Gal(b1-4)GlcNAc(b1-2)Man(a1-3)[Fuc(a1-2)Gal(b1-4)GlcNAc(b1-2)Man(a1-6)]Man(b1-4)GlcNAc(b1-4)[Fuc(a1-6)]GlcNAc
# In short: as §1
# [22] = molecular target: Fuc(a1-2)Gal(b1-4)GlcNAc(b1-2)[Fuc(a1-2)Gal(b1-4)GlcNAc(b1-4)]Man(a1-3)[Fuc(a1-2)Gal(b1-4)GlcNAc(b1-2)Man(a1-6)]Man(b1-4)GlcNAc(b1-4)GlcNAc
# In short: as §1
# [23] = molecular target: Fuc(a1-2)Gal(b1-4)GlcNAc(b1-3)Gal(b1-4)GlcNAc
# In short: as §1
# [24] = molecular target: Fuc(a1-2)Gal(b1-4)GlcNAc(b1-3)Gal(b1-4)GlcNAc(b1-2)Man(a1-3)[Fuc(a1-2)Gal(b1-4)GlcNAc(b1-3)Gal(b1-4)GlcNAc(b1-2)Man(a1-6)]Man(b1-4)GlcNAc(b1-4)GlcNAc
# In short: as §1
# [25] = molecular target: Fuc(a1-2)Gal(b1-4)GlcNAc(b1-3)Gal(b1-4)GlcNAc(b1-3)Gal(b1-4)GlcNAc
# In short: as §1
# [26] = molecular target: Fuc(a1-2)Gal(b1-4)GlcNAc(b1-3)GalNAc
# In short: as §1
# [27] = molecular target: Fuc(a1-2)Gal(b1-4)GlcNAc(b1-3)[Fuc(a1-2)Gal(b1-4)GlcNAc(b1-6)]GalNAc
# In short: as §1
# [28] = molecular target: Fuc(a1-2)Gal(b1-4)GlcNAc(b1-3)[Fuc(a1-3)[Gal(b1-4)]GlcNAc(b1-6)]Gal(b1-4)Glc
# In short: as §1
# [29] = molecular target: Fuc(a1-2)Gal(b1-4)GlcNAc(b1-6)GalNAc
# In short: as §1
# [30] = molecular target: Fuc(a1-2)Gal(b1-4)GlcNAc6S
# In short: as §1
# [31] = molecular target: Fuc(a1-2)Gal(b1-4)[Fuc(a1-3)]GlcNAc
# In short: as §1
binder,measurement,setting,value
B1,glycan array binding signal (z-score),Fuc(a1-2)Gal,-0.511
same,glycan array binding signal (z-score),Fuc(a1-2)Gal(b1-3)GalNAc,-0.714
same,glycan array binding signal (z-score),[1],-0.521
same,glycan array binding signal (z-score),[2],-0.618
same,glycan array binding signal (z-score),[3],-0.017
same,glycan array binding signal (z-score),[4],0.134
same,glycan array binding signal (z-score),[5],0.482
same,glycan array binding signal (z-score),Fuc(a1-2)Gal(b1-3)GlcNAc,-1.06
same,glycan array binding signal (z-score),[6],1.13
same,glycan array binding signal (z-score),[7],-0.26
same,glycan array binding signal (z-score),[8],-0.724
same,glycan array binding signal (z-score),[9],-0.404
same,glycan array binding signal (z-score),[10],-0.113
same,glycan array binding signal (z-score),[11],0.936
same,glycan array binding signal (z-score),[12],-0.602
same,glycan array binding signal (z-score),[13],-0.515
same,glycan array binding signal (z-score),[14],-0.614
same,glycan array binding signal (z-score),[15],0.089
same,glycan array binding signal (z-score),[16],0.873
same,glycan array binding signal (z-score),[17],-0.54
same,glycan array binding signal (z-score),[18],-0.297
same,glycan array binding signal (z-score),Fuc(a1-2)Gal(b1-4)Glc,-0.416
same,glycan array binding signal (z-score),Fuc(a1-2)Gal(b1-4)Glc6S,-0.939
same,glycan array binding signal (z-score),Fuc(a1-2)Gal(b1-4)GlcNAc,-1.12
same,glycan array binding signal (z-score),[19],0.294
same,glycan array binding signal (z-score),[20],0.251
same,glycan array binding signal (z-score),[21],0.204
same,glycan array binding signal (z-score),[22],0.006
same,glycan array binding signal (z-score),[23],-0.579
same,glycan array binding signal (z-score),[24],0.002
same,glycan array binding signal (z-score),[25],-0.218
same,glycan array binding signal (z-score),[26],0.314
same,glycan array binding signal (z-score),[27],0.452
same,glycan array binding signal (z-score),[28],-0.579
same,glycan array binding signal (z-score),[29],0.714
same,glycan array binding signal (z-score),[30],-0.996
same,glycan array binding signal (z-score),[31],-1.13

# 2 entries drawn at random from those above, as already listed:
binder,measurement,setting,value
B1,glycan array binding signal (z-score),[6],1.13
same,glycan array binding signal (z-score),[29],0.714
